Experiment: Degradation of the compound in buffered solution
Settings: first 30 minutes at room temperature

rate of degradation: 15-18%
SMILES: O=C(O)C(=O)CC1(C(=O)O)C=CC(O)C=C1 (stereo not shown) [Prephenate, prephenate]
